Values of other authors, collected in patent US20230000934A1, “METHODS FOR ENGINEERING THERAPEUTICS AND USES THEREOF” (The Trustees of Columbia University In The City of New York, priority 2019, published 2023).
At least one structure is not confirmed: it was looked up by name or label, or the drawing left a doubt.

Tested on: Staphylococcus aureus
Conditions: against Staphylococcus aureus; cited from earlier work

For CN(C)[C@@H]1C(O)=C(C(N)=O)C(=O)[C@@]2(O)C(O)=C3C(=O)c4c(O)ccc(Cl)c4[C@@](C)(O)[C@H]3C[C@@H]12 [7-chlorotetracycline], the “potency relative to 7-chloro-5a(11a)-dehydrotetracycline” value is listed as “over 20 times”.
